# Reference: US20200129630A1, “METHODS FOR TREATING CANCER” (BicycleRD Limited, priority 2018, published 2020)
# Entries after “also recorded” stand apart in the source; their conditions may differ. At least one peptide structure holds a part that was inferred or is arguable (an end, a ring closure or a residue). For at least one compound, name, drawing or mass did not settle the structure. Marks after values point to notes of the source that are not given here. Numbered stars: 1 amine (or outer) side, 2 acyl side, 3 side chain; on linkers, the order of the positions; unused ones are H or OH. Bridge positions count the residues as written; N and C are the ends. Square brackets hold non-standard residues; d marks the D form. Peptide text beside a SMILES is read from it. * marks the point of attachment. X1 = COc1cc2cc(c1Cl)N(C)C(=O)C[C@H](OC(=O)[C@H](C)N(C)C(=O)CCSSC(C)CCC(=O)*)[C@]1(C)O[C@H]1[C@H](C)[C@@H]1C[C@@](O)(NC(=O)O1)[C@H](OC)/C=C/C=C(\C)C2; 1Nal = N[C@@H](Cc1cccc2ccccc12)C(=O)O; TBMB = c1c(C[*:1])cc(C[*:3])cc1C[*:2]; Tle = CC(C)(C)[C@H](N)C(=O)O; βAla = NCCC(=O)O; Sar = CNCC(=O)O
# How the values were obtained:
# HT-1080 xenograft = HT-1080 xenograft anti-tumor activity; assay type: in vivo, Female BALB/c mice
# HT-29 xenograft = HT-29 xenograft anti-tumor activity; assay type: in vivo, Female BALB/c mice
# MOLP-8 xenograft = MOLP-8 xenograft anti-tumor activity; assay type: in vivo, Female BALB/c mice
# SNU-16 xenograft = SNU-16 xenograft anti-tumor activity; assay type: in vivo, Female BALB/c mice
# MT1-MMP = MT1-MMP (Homo sapiens, UniProt P50281); experiment: Effect on catalytic (proteolytic) activity of MT1-MMP; assay type: biochemical
# Description: Bicycle drug conjugates (BDCs) with a variety of linkers and cytotoxic payloads were prepared which retained binding to MT1.
# BT1718 is a BDC that binds to MT1-MMP and upon cleavage of its disulphide linker, releases the cytotoxic tubulin inhibitor, DM1 (also referred to as DM1-SH).
# [1] = tested on: tumor epithelial cell apoptotic/necrotic death; experiment: Circulating cell death markers M30 and M65 ELISA in serum; assay type: in vivo, patients
# MDA-MB-231 xenograft = MDA-MB-231 xenograft anti-tumor activity; assay type: in vivo, Female BALB/c mice
# [2] = tested on: MT1-MMP-expressing xenograft tumors; experiment: Anti-tumor activity across MT1-MMP-expressing xenograft models (summary); assay type: in vivo, mice
# advanced solid tumors = experiment: Phase I/IIa trial of BT1718 in patients with advanced solid tumors: safety and efficacy; assay type: in vivo
# From the text: This is a multi-center, FIH, Phase I/IIa, open label dose escalation trial with an expansion phase, in patients with advanced solid tumors.
# A DLT is defined as a probably or highly probably drug-related AE occurring during Cycle 1 (i.e. the first 28 days) which fulfils one or more of the following criteria, despite appropriate supportive clinical management (however, all clinically significant toxicities will be considered in dose review decisions and the determination of the Phase II dose): • Neutropenia Grade 4 (absolute neutrophil count [ANC]<0.5×10^9/L) for ≥seven days *see note; • Febrile neutropenia with Grade 3 or 4 neutropenia ANC <1.0×10^9/L and a single temperature of […] or a sustained temperature ≥38° C. for more than one hour); • Clinically significant infection (documented clinically or microbiologically) with Grade 3 or 4 neutropenia (ANC <1.0×10^9/L); • Thrombocytopenia Grade 4: a) for ≥five days *see note, or b) associated with active bleeding, or c) requiring platelet transfusion. • Grade 3 or 4 toxicity to organs other than the bone marrow, EXCLUDING: Grade 3 nausea; • Grade 3 or 4 vomiting in patients who have not received optimal treatment with anti-emetics; or • Grade 3 or 4 diarrhoea in patients who have not received optimal treatment with anti-diarrhoeals. • Transient, asymptomatic Grade 3 biochemical abnormalities if agreed by the Sponsor and the Study Team, including the Chief Investigator (CI). • Fatal event; • Any other related toxicity which leads to discontinuation of treatment in Cycle 1, or to a delay in dosing of >7 days (excluding where the delay is >7 days due to scheduling rather than a clinical decision); • Any other related toxicity that is greater than at baseline and is judged to be a DLT by the Sponsor, including the CI and Principal Investigators (PIs).
# Definitions of disease status is in accordance with RECIST (Response Evaluation Criteria in Solid Tumors) 1.1, based on documentation of target and non-target lesions as specified in the BT1718 study protocol. All clinical measurements to assess response must be performed within one week of the first dose of BT1718.
# An open label, first in human phase Ulla study of once-weekly (QW) and twice-weekly (BIW) dosing schedules in patients with advanced solid tumours was undertaken.
# 4-week cycle: 1 hour intravenous (IV) infusions for 3 weeks, followed by a 1 week break.
# LU-01-0251 NSCLC PDX = experiment: NSCLC PDX LU-01-0251 (high MT1-MMP expression); assay type: in vivo, Mice; conditions: Day 21-27
# EBC-1 xenograft = experiment: Dosing schedule experiment in EBC-1 xenograft mice; conditions: total weekly dose of 60 mg/m^2, all schedules
# [3] = 1 mg/kg (3 mg/m^2) twice per week
# [4] = 3 mg/kg (9 mg/m^2) twice per week
# [5] = 10 mg/kg (30 mg/m^2) twice per week
structure (smiles),measurement,setting,value
COc1cc2cc(c1Cl)N(C)C(=O)C[C@H](OC(=O)[C@H](C)N(C)C(=O)CCSSC(C)CCC(=O)NCCC(=O)N(C)CC(=O)N(C)CC(=O)N(C)CC(=O)N(C)CC(=O)N(C)CC(=O)N(C)CC(=O)N(C)CC(=O)N(C)CC(=O)N(C)CC(=O)N(C)CC(=O)N[C@@H](C)C(=O)N[C@H]1CSCc3cc4cc(c3)CSC[C@H](NC(=O)[C@@H](C)NC(=O)[C@H](Cc3cccc5ccccc35)NC(=O)[C@H](CCC(=O)O)NC(=O)[C@H](CC(N)=O)NC(=O)[C@@H](C)NC1=O)C(=O)N[C@@H](CCC(=O)O)C(=O)N[C@@H](CC(=O)O)C(=O)N[C@@H](Cc1ccccc1)C(=O)N[C@@H](Cc1ccc(O)cc1)C(=O)N[C@@H](CC(=O)O)C(=O)N[C@@H](C(C)(C)C)C(=O)N[C@H](C(N)=O)CSC4)[C@]1(C)O[C@H]1[C@H](C)[C@@H]1C[C@@](O)(NC(=O)O1)[C@H](OC)/C=C/C=C(\C)C2 (stereo partly drawn) [BT1718] ({X1-βAla}-[Sar][Sar][Sar][Sar][Sar][Sar][Sar][Sar][Sar][Sar]AC[dA]NE[1Nal][dA]CEDFYD[Tle]C-NH2; linker 12-18-25 via TBMB (inferred)),Description of anti-tumor effect,HT-1080 xenograft; HT-1080,Complete regressions at ≥3 mg/kg
same,TGI % on Day 14,"HT-1080 xenograft; HT-1080, 1 mg/kg (3 mg/m^2) twice per week",27%
same,TGI % on Day 14,"HT-1080 xenograft; HT-1080, 3 mg/kg (9 mg/m^2) twice per week",109*** %
same,TGI % on Day 14,"HT-1080 xenograft; HT-1080, 10 mg/kg (30 mg/m^2) twice per week",108*** %
same,minimum effective dose,"HT-1080 xenograft; HT-1080 model, twice weekly",2 mg/kg
same,TGI % on Day 14,HT-29 xenograft; [3],24%
same,TGI % on Day 14,HT-29 xenograft; [4],7%
same,TGI % on Day 14,HT-29 xenograft; [5],103* %
same,Description of anti-tumor effect,HT-29 xenograft; until Day 22,Stable disease at 10 mg/kg until
same,Description of anti-tumor effect,MOLP-8 xenograft,Stable disease by Day 14 no
same,TGI % on Day 14,MOLP-8 xenograft; [3],37.5%
same,TGI % on Day 14,MOLP-8 xenograft; [4],59.2 * %
same,TGI % on Day 14,MOLP-8 xenograft; [5],99.4** %
same,TGI % on Day 14,SNU-16 xenograft; [3],51%
same,TGI % on Day 14,SNU-16 xenograft; [4],95** %
same,TGI % on Day 14,SNU-16 xenograft; [5],155*** %
same,Description of anti-tumor effect,SNU-16 xenograft; by Day 14,Complete regression at 10 mg/kg by
same,interference with the proteolytic activity of MT1-MMP,MT1-MMP,does not interfere
same,effect on tumor epithelial cell apoptotic/necrotic death,[1]; M30 and M65 assay,increases tumor epithelial cell apoptotic/necrotic death
same,"patients with changes in cell death markers (M30, M65)","[1]; highest evaluated dose, serum",5/5
same,TGI % on Day 14,MDA-MB-231 xenograft; [3],8%
same,TGI % on Day 14,MDA-MB-231 xenograft; [4],26** %
same,TGI % on Day 14,MDA-MB-231 xenograft; [5],102*** %
same,Description of anti-tumor effect,MDA-MB-231 xenograft; 10 mg/kg by Day 25,Near complete regressions at
same,anti-tumor effect,"[2]; 3 mg/kg, 9 mg/m^2 twice weekly",SD or better in several models
same,anti-tumor effect,[2]; 10 mg/kg (30 mg/m^2) twice weekly,complete regressions in most models; also recorded: complete regressions in the majority of MT1-MMP-expressing xenograft tumors tested
same,minimally effective doses,"[2]; MT1-positive xenograft models (e.g. HT1080, HCC1806, SNU-16), weekly or twice weekly",3 to 10 mg/kg
same,lowest dose producing significant growth inhibition,[2]; twice weekly,3 mg/m^2
same,patients with stable disease,advanced solid tumors; 8 week timepoint,6/20
same,decrease in one lesion,"advanced solid tumors; one patient, at cycle 6",~45%
same,decrease in target lesions,"advanced solid tumors; one patient, at cycle 6",~14%
same,disease status at first disease assessment,advanced solid tumors; the 5 patients at highest evaluated dose,All 5 patients had SD
same,objective responses (RECIST 1.1),advanced solid tumors; unselected population,No objective responses
same,TGI,LU-01-0251 NSCLC PDX; 3 mg/kg twice weekly,71%
same,TGI,LU-01-0251 NSCLC PDX; 10 mg/kg twice weekly,106%
same,anti-tumor effect,EBC-1 xenograft,complete regression of the tumor
